In PMC10205858 one finds binding data, which are given here for nine molecules.

By UniProt entry, the sequences of proteins in these tests, tags left out. Where a name states a change or a piece, a line headed by the entry shows the natural chain unless it says otherwise.
UniProt Q15672: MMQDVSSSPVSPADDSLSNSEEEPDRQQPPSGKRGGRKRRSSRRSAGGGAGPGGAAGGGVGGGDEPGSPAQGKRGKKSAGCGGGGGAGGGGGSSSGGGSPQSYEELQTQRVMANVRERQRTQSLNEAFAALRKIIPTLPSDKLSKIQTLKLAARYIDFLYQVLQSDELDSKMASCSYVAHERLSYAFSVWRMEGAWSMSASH
UniProt Q9Y297: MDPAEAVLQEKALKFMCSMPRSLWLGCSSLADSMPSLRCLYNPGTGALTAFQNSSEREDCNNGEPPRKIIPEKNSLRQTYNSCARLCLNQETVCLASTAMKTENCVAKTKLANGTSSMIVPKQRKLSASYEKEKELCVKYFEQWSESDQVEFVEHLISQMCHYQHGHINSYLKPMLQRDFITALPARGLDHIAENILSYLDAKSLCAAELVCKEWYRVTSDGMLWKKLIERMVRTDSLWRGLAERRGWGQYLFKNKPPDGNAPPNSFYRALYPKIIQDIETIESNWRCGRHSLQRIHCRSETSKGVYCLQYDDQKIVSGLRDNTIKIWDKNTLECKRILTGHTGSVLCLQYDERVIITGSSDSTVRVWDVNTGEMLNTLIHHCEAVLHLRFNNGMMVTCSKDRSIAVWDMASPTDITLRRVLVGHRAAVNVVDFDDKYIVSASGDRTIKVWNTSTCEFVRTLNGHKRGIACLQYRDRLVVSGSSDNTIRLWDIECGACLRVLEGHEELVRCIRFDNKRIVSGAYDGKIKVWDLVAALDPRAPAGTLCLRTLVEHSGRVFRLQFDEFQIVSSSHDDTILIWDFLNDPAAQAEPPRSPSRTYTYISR
UniProt Q8N1E6: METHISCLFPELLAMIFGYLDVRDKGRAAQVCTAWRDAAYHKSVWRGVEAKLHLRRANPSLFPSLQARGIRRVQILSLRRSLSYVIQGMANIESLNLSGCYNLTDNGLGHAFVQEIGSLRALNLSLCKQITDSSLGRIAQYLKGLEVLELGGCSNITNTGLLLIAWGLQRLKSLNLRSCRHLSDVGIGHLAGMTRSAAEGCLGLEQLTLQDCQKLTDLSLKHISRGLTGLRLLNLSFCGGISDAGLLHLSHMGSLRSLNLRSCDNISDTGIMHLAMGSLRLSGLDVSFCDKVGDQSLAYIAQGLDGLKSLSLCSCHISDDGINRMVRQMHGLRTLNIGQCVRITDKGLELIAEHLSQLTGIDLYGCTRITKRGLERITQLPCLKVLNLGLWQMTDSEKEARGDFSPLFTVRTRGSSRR

Results are given in words; binding and its absence hold for the method and conditions named. Binding seen in cells or lysates may run through a third protein. Some binding calls cover weakened binding; strength is not graded here. For part of these data: Where a sequence is shown, tags or fusion partners need not be part of it.

One assay concerns the target T1, GST-USP13 (UniProt Q92995).
T1 sequence: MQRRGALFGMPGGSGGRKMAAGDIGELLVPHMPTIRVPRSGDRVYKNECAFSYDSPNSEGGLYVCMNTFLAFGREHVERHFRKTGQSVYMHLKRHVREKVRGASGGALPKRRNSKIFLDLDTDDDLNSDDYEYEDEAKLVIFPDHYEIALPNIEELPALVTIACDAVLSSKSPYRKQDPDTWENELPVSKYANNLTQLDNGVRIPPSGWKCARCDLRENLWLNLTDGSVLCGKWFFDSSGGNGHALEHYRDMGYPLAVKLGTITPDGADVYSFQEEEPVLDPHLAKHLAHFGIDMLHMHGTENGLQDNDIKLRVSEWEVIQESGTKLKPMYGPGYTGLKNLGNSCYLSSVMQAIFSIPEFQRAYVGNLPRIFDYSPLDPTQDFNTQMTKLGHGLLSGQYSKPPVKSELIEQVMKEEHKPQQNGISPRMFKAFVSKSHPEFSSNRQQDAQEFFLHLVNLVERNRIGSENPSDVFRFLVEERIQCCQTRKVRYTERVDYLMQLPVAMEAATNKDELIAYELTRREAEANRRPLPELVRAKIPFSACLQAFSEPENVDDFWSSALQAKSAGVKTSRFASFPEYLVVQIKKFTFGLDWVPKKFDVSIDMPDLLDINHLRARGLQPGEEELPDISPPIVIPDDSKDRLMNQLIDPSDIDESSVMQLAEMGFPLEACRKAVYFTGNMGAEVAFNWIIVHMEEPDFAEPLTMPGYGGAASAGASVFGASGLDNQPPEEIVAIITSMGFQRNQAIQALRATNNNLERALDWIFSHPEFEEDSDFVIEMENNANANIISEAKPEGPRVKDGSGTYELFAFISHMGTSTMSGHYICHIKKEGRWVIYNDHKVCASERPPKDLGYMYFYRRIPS
The experiment in a line: pull-down; GST pull-down with GST-USP13 or GST as bait; Flag-Twist1 or GFP-Twist1 constructs as prey; details by reference to earlier work; only the target purified.

Assay [1] concerns the target Twist1 (twist family bHLH transcription factor 1), endogenous (human (endogenous in SUM159PT and MDA-MB231)) (UniProt Q15672). Description: co-IP; endogenous proteins of SUM159PT cells, 20 μM MG132; immunoprecipitated with anti-Twist1 or anti-FBXL14 antibody; with or without transfected GFP-USP13 or USP13 shRNA.
The target is the same in assay [2]. Description: co-IP; endogenous USP13 and Twist1 each immunoprecipitated from MDA-MB231 and SUM159PT cells; the bound partner detected by Western blotting.
Assay [3] has as its target Flag-Twist1 (UniProt Q15672). The experiment in a line: co-IP; Flag-Twist1 co-expressed with GFP-USP13 in HEK293T cells; lysates immunoprecipitated with anti-Flag or anti-GFP antibody; Western blotting.
Assay [4] concerns the target Flag-Twist1 (UniProt Q15672). Description: co-IP; GFP-USP13 deletion constructs with Twist1; the legend says only detected via Western blotting; cells not named.

In the case of “GFP-Twist1, full length (FL) (from UniProt Q15672 1-202)”, the binding result with GST-USP13 is on record as “binds”. The same measure, in the same setting: the same measure for “GFP-Twist1 169–202 amino acid fragment (Twist1 WR domain) (from UniProt Q15672 169-202) (domain or fragment)”: “binds”. Turning to “β-TrCP1, endogenous (from UniProt Q9Y297 1-605)”, the binding result in assay [1] is on record as “binds”.

For the molecule Flag-Twist1 (from UniProt Q15672 1-202), in the assay with GST-USP13, the binding entry is reported as “binds”. Take “FBXL14, endogenous (from UniProt Q8N1E6 1-418)”: the binding entry in assay [1] is given as “binds”.

B1: RNF8, endogenous (protein, UniProt O76064 1-485)
chain: MGEPGFFVTGDRAGGRSWCLRRVGMSAGWLLLEDGCEVTVGRGFGVTYQLVSKICPLMISRNHCVLKQNPEGQWTIMDNKSLNGVWLNRARLEPLRVYSIHQGDYIQLGVPLENKENAEYEYEVTEEDWETIYPCLSPKNDQMIEKNKELRTKRKFSLDELAGPGAEGPSNLKSKINKVSCESGQPVKSQGKGEVASTPSDNLDPKLTALEPSKTTGAPIYPGFPKVTEVHHEQKASNSSASQRSLQMFKVTMSRILRLKIQMQEKHEAVMNVKKQTQKGNSKKVVQMEQELQDLQSQLCAEQAQQQARVEQLEKTFQEEEQHLQGLEIAQGEKDLKQQLAQALQEHWALMEELNRSKKDFEAIIQAKNKELEQTKEEKEKMQAQKEEVLSHMNDVLENELQCIICSEYFIEAVTLNCAHSFCSYCINEWMKRKIECPICRKDIKSKTYSLVLDNCINKMVNNLSSEVKERRIVLIRERKAKRLF
In the case of B1, the binding result in assay [1] is listed as “binds”.

B2: USP13 (ubiquitin specific peptidase 13), endogenous (enzyme, UniProt Q92995 1-863)
chain: MQRRGALFGMPGGSGGRKMAAGDIGELLVPHMPTIRVPRSGDRVYKNECAFSYDSPNSEGGLYVCMNTFLAFGREHVERHFRKTGQSVYMHLKRHVREKVRGASGGALPKRRNSKIFLDLDTDDDLNSDDYEYEDEAKLVIFPDHYEIALPNIEELPALVTIACDAVLSSKSPYRKQDPDTWENELPVSKYANNLTQLDNGVRIPPSGWKCARCDLRENLWLNLTDGSVLCGKWFFDSSGGNGHALEHYRDMGYPLAVKLGTITPDGADVYSFQEEEPVLDPHLAKHLAHFGIDMLHMHGTENGLQDNDIKLRVSEWEVIQESGTKLKPMYGPGYTGLKNLGNSCYLSSVMQAIFSIPEFQRAYVGNLPRIFDYSPLDPTQDFNTQMTKLGHGLLSGQYSKPPVKSELIEQVMKEEHKPQQNGISPRMFKAFVSKSHPEFSSNRQQDAQEFFLHLVNLVERNRIGSENPSDVFRFLVEERIQCCQTRKVRYTERVDYLMQLPVAMEAATNKDELIAYELTRREAEANRRPLPELVRAKIPFSACLQAFSEPENVDDFWSSALQAKSAGVKTSRFASFPEYLVVQIKKFTFGLDWVPKKFDVSIDMPDLLDINHLRARGLQPGEEELPDISPPIVIPDDSKDRLMNQLIDPSDIDESSVMQLAEMGFPLEACRKAVYFTGNMGAEVAFNWIIVHMEEPDFAEPLTMPGYGGAASAGASVFGASGLDNQPPEEIVAIITSMGFQRNQAIQALRATNNNLERALDWIFSHPEFEEDSDFVIEMENNANANIISEAKPEGPRVKDGSGTYELFAFISHMGTSTMSGHYICHIKKEGRWVIYNDHKVCASERPPKDLGYMYFYRRIPS
For the molecule B2, the binding entry in assay [2] is on record as “binds”.

B3: GFP-USP13 (enzyme, UniProt Q92995 1-863)
chain: MQRRGALFGMPGGSGGRKMAAGDIGELLVPHMPTIRVPRSGDRVYKNECAFSYDSPNSEGGLYVCMNTFLAFGREHVERHFRKTGQSVYMHLKRHVREKVRGASGGALPKRRNSKIFLDLDTDDDLNSDDYEYEDEAKLVIFPDHYEIALPNIEELPALVTIACDAVLSSKSPYRKQDPDTWENELPVSKYANNLTQLDNGVRIPPSGWKCARCDLRENLWLNLTDGSVLCGKWFFDSSGGNGHALEHYRDMGYPLAVKLGTITPDGADVYSFQEEEPVLDPHLAKHLAHFGIDMLHMHGTENGLQDNDIKLRVSEWEVIQESGTKLKPMYGPGYTGLKNLGNSCYLSSVMQAIFSIPEFQRAYVGNLPRIFDYSPLDPTQDFNTQMTKLGHGLLSGQYSKPPVKSELIEQVMKEEHKPQQNGISPRMFKAFVSKSHPEFSSNRQQDAQEFFLHLVNLVERNRIGSENPSDVFRFLVEERIQCCQTRKVRYTERVDYLMQLPVAMEAATNKDELIAYELTRREAEANRRPLPELVRAKIPFSACLQAFSEPENVDDFWSSALQAKSAGVKTSRFASFPEYLVVQIKKFTFGLDWVPKKFDVSIDMPDLLDINHLRARGLQPGEEELPDISPPIVIPDDSKDRLMNQLIDPSDIDESSVMQLAEMGFPLEACRKAVYFTGNMGAEVAFNWIIVHMEEPDFAEPLTMPGYGGAASAGASVFGASGLDNQPPEEIVAIITSMGFQRNQAIQALRATNNNLERALDWIFSHPEFEEDSDFVIEMENNANANIISEAKPEGPRVKDGSGTYELFAFISHMGTSTMSGHYICHIKKEGRWVIYNDHKVCASERPPKDLGYMYFYRRIPS
Take B3: the binding entry with Flag-Twist1 [3] is on record as “binds”.

B4: GFP-USP13 (625–863) (domain or fragment, UniProt Q92995 625-863)
chain: ELPDISPPIVIPDDSKDRLMNQLIDPSDIDESSVMQLAEMGFPLEACRKAVYFTGNMGAEVAFNWIIVHMEEPDFAEPLTMPGYGGAASAGASVFGASGLDNQPPEEIVAIITSMGFQRNQAIQALRATNNNLERALDWIFSHPEFEEDSDFVIEMENNANANIISEAKPEGPRVKDGSGTYELFAFISHMGTSTMSGHYICHIKKEGRWVIYNDHKVCASERPPKDLGYMYFYRRIPS
For the molecule B4, in the assay with Flag-Twist1 [4], the binding result was “binds”.
